Laboratory results taken from PMC11479942, “XPD stalled on cross-linked DNA provides insight into damage verification”.
Where a chain is given by its changes, count along the chain named. The exact form of at least one protein or probe is not confirmed. At least one verdict rests on a figure or table, not on a statement of the authors. Tags and fusion partners may be left off the protein sequences shown.

Assays:
Experiment in all cases: fluorescence anisotropy
[1] = target: T1, XPD R372A R355A (Chaetomium thermophilum (paper: C. thermophilum)) (UniProt G0RZH0); settings: 5 mM MgCl2, no nucleotide, range over all variants; Fluorescence anisotropy: 20 mM HEPES pH 7.5, 50 mM KCl, 5 mM MgCl2, 1 mM TCEP, 5 nM DNA, room temperature; recombinant protein; protein details: N-terminal 6xHis, TEV site; label: 5' Cy3; folded or branched DNA
T1 sequence (looked up, limits assumed): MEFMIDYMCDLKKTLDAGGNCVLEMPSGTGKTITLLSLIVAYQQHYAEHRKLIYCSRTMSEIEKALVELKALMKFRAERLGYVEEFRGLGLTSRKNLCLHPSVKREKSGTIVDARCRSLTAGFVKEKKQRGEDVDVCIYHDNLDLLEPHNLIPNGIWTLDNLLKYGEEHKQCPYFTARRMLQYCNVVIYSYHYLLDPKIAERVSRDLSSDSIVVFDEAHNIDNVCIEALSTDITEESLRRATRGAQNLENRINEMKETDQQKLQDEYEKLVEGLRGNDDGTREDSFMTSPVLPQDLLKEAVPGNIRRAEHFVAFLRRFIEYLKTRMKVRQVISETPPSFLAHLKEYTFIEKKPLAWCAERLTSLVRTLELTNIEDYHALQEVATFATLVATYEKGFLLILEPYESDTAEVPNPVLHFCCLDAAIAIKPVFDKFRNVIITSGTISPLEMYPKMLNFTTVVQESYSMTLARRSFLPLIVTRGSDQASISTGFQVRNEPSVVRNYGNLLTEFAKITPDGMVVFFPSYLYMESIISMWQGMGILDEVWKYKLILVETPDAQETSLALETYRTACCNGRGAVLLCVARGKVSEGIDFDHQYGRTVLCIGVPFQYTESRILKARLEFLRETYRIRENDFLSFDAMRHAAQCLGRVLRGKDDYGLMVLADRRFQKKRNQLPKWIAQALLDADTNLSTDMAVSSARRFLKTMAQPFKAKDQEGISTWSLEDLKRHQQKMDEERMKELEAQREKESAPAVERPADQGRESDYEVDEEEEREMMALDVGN

[2] = target: T2, XPD R372E R355E (Chaetomium thermophilum (paper: C. thermophilum)) (UniProt G0RZH0); settings: 5 mM MgCl2, no nucleotide, range over all variants; Fluorescence anisotropy: 20 mM HEPES pH 7.5, 50 mM KCl, 5 mM MgCl2, 1 mM TCEP, 5 nM DNA, room temperature; recombinant protein; protein details: N-terminal 6xHis, TEV site; label: 5' Cy3; folded or branched DNA
T2 sequence (looked up, limits assumed): T1 sequence (looked up, limits assumed) with A355E

[3] = target: T3, XPD W373A W356A (Chaetomium thermophilum (paper: C. thermophilum)) (UniProt G0RZH0); settings: 5 mM MgCl2, no nucleotide, range over all variants, own value in Extended Data Table 1 (not in material); Fluorescence anisotropy: 20 mM HEPES pH 7.5, 50 mM KCl, 5 mM MgCl2, 1 mM TCEP, 5 nM DNA, room temperature; recombinant protein; protein details: N-terminal 6xHis, TEV site; label: 5' Cy3; folded or branched DNA
T3 sequence (looked up, limits assumed): T1 sequence (looked up, limits assumed) with A355R, W356A

[4] = target: T4, XPD W373E W356E (Chaetomium thermophilum (paper: C. thermophilum)) (UniProt G0RZH0); settings: 5 mM MgCl2, no nucleotide, range over all variants; Fluorescence anisotropy: 20 mM HEPES pH 7.5, 50 mM KCl, 5 mM MgCl2, 1 mM TCEP, 5 nM DNA, room temperature; recombinant protein; protein details: N-terminal 6xHis, TEV site; label: 5' Cy3; folded or branched DNA
T4 sequence (looked up, limits assumed): T1 sequence (looked up, limits assumed) with A355R, W356E

Measured: binding result

TTTTTTTTTTTTTTTCCCGGCCATGCGAAGCATGGCCGTT [5' overhang self-annealing hairpin]
binds: all assays above
